The campaign covered roughly 53,000 sequences. About 3,700 (7%) were called active.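 Rule for the calls: active = gene knockdowns whose robust z-score for IL-1 alpha signal is at least 2 or at most -2, so actives lie on both sides; inactive = the rest.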 This is one part of the list.

The experiment in a line: Components of the Cytosolic LPS Sensing Pathway: Gene Identification via Genome-wide siRNA Screen.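 Note: robust z of the log signal after scaling to non-targeting control siRNA wells of the plate.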 Particulars: RAW264.7 macrophages, IL-1a HTRF, actives lie on both sides, screened at 100 nM (by protocol), cells primed 5 h with Pam3CSK4 first. An outline of the steps:
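Using IL-1a HTRF as read-out, the screen measured release from RAW264.7 cells after 48h siRNA knockdown (100 nM), 5 h Pam3CSK4 priming and 24 h cytosolic LipidA. Values were expressed relative to negative-control wells as robust z-scores.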
For orientation: Time-resolved FRET reads energy transfer from a long-lived donor to a nearby acceptor.
For the sequence GGAGGACAUGGACACAGUCTT against Slc39a7, the z-score is inactive: -0.805.
Consider GCUUCCCUGCCGUGAUGAUTT against Git1, for which the z-score was inactive: -1.15.
For GGAAACCUAUUGUAUACAATT against Il33, the z-score was inactive: 0.9.
The same measure for GCUGGGUUUACCUUCCUGATT against Olfr601: inactive: 0.351.
With AGUCGCCAACCUAUUAUUUTT against Inka1, the z-score is inactive: -0.518.
Turning to GGAACUGUGGUUUUCUACCTT against Rgs8, the z-score was inactive: -1.3.
With GGAAAGAAUAGCAGCGUGGTT against Echs1, the z-score is inactive: 1.14.
As to CCUUAAGUUAGCUUUAGUUTT against Pop4, the z-score is inactive: 1.01.
The result for GGAAAGUCGUCGUAACUAUTT against Dnajc4 reads inactive: -0.812; that for CCAACGUAAGAAAUUCAGATT against Smoc1, inactive: 0.466; that for GGCCUAAAUAAGGAUGUGATT against Gdpd3, inactive: -1.03.
For the sequence GCAAAUUCUGACUUACUAATT against Ankfn1, the z-score was inactive: 0.61.
Consider AAAAAACAGCACCCUGAUGTT against Olfr204, for which the z-score is inactive: 1.1.
Turning to GGACAAAGACAAACUUUAATT against Scn4a, the z-score is inactive: -0.236.
Turning to GGAUGUCAGUAUUUCCUGGTT against Glrx, the z-score was inactive: -0.255.
The result for GGCUCUAUGUUUAUAAUGATT against Olfm5 reads active: -2.07.
For GGGUCUUAUCUCGAUGAGGTT against Flt3l, the z-score was inactive: -0.199.
The result for CCAACAACGGCAUUCACUATT against Ebf3 reads inactive: -0.676; that for GCCUUUAAGAUACUAUCCATT against Lysmd4, inactive: 0.676.
Take GCUUUGUAGGAGUUUUUAATT against Rhoq: the z-score was inactive: 1.5.
On to GGAACAGAGUGUCCACAAUTT against Apof, for which the z-score was inactive: -1.68.
The same measure for UUAAGGAAAUGUUCUGUUCTT against Olfr426: inactive: 0.797; for GGUUUACAAAAAUUCUCAGTT against Hcn1: inactive: -0.124; for GCCAUUGUACAGCUACCAUTT against Figla: inactive: -0.186.
Turning to GCUAUCCUAAUCCUCAAUATT against Tmprss11d, the z-score is inactive: -0.182.
The result for GGGCAGUGAAAUCCUGUCUTT against Trim16 reads active: -2.81; that for GGAAUGGAUCCUGAUGAUATT against Spcs2, inactive: -0.877.
The same measure for GGAAGCACCCACAAAACCUTT against Barx2: inactive: -1.19; for GGAGAGCAUUCCCAUUGCUTT against Ddx6: active: -2; for GGAAGGAGAAUGGUACUGGTT against Cd209e: inactive: -1.66.
As to GCUAAAAAAGCUUCUUCAUTT against Gypc, the z-score is inactive: -0.48.
The result for GGUUGUCUUUCUACUCGGGTT against Plpp1 reads inactive: 1.37.
The same measure for GCUAUCAUUAACAACAAAGTT against Olfr808: inactive: -1.79; for GGUGUUUAAAUUCAUCUACTT against Sec16a: inactive: 0.88.
The same measure for GUCCUGAAAAUGCUAUUCUTT against Olfr68: inactive: 0.281; for GGAAUGAGCUCGAUUAUAATT against Nrip1: inactive: 1.21.
Take CGAUAUGAUGACAAAUCAGTT against Pik3ap1: the z-score is inactive: -0.352.
Consider CCAGCUUUUACCUAAUACCTT against Ggt1, for which the z-score was inactive: 0.0683.
With GGAGACACAUAGGUGUAAATT against H2-T23, the z-score is inactive: 0.458.
The result for GGAUCUUUUAGCUAACCUATT against Tesk2 reads inactive: 1.84.
The result for GGCUGGAUGUAGAAAAUAUTT against Aspm reads active: -2.1; that for GGGUUUUUCAUGUGUUUACTT against Rbpms2, inactive: -0.259; that for CCACUUUGGUGUAUAGUCATT against Hnrnpab, inactive: 1.08.
As for CCUAAAAUCCACCAAGCUUTT against Zbtb46, the z-score is inactive: -0.489.
The same measure for GGCCCUGUAUUUCUCUGACTT against Plat: inactive: -1.03.
For the sequence GGAUAAGAGACAAUGAAUUTT against Fut7, the z-score was inactive: -1.19.
The result for GAAUCAGCUGUUCUCUCACTT against Tm2d3 reads active: 2.25.
CCAAGUGUAUUUCACAUAATT against F2r: the z-score is inactive: -0.395.
With GCUUUCCUGUGCUCCAACGTT against Olfr527, the z-score is inactive: 1.38.
The result for GGCCUUCAAGAACUCCUCCTT against Zfp628 reads inactive: 0.939.
The same measure for GGUGGUCUAAGUCCUGACATT against Hmx1: inactive: -0.112.
The same measure for GCCCACUUUCUAGGUAGUUTT against Olfr703: inactive: 0.164; for GCAUGAGGAAAAAUCUUCATT against Neurod4: inactive: -0.158.
Turning to GCUCUUUCAACAUGUAGUUTT against Olfr1180, the z-score is inactive: -1.1.
Take GCACUAAGUGGUCCAAUUATT against Ephx4: the z-score was inactive: -1.39.
The result for GGGCUCGUAAAGAAAGAAGTT against Cep41 reads inactive: -1.15; that for GGAGCAGUUACAGGAAAUCTT against Cdr2, active: -2.11.
On to GGAUAAGACUUUAGCUUUUTT against Fbxo45, for which the z-score is inactive: 0.839.
For “GGAGGAGAAAAAUUGUAUUTT against A530053G22Rik”, the z-score was inactive: 0.0138.
The result for ACAAAGUCUGUUCAAGAUCTT against Oc90 reads inactive: -0.0677.
In the case of GGGAAAAUAACAAAAAGAGTT against Hoxc6, the z-score was inactive: -1.07.
The same measure for GAUACUGUCUACAAGCUUCTT against Cep44: inactive: 0.604; for GAAUGAGUUCUGCCCAGUCTT against Lhb: inactive: 0.128.
For the sequence GAUGAUGAACGACUGGUUCTT against Olfr285, the z-score is inactive: 0.456.
Turning to GGAAGCCUUAUAUCGGGCGTT against Togaram1, the z-score was inactive: 1.1.
The result for CGGGUUCCCAGGAAUUAAGTT against Col4a6 reads inactive: 0.304; that for GGGAAGUUCAUUUGUUAAATT against Gosr1, inactive: 0.965; that for GGCAUUAGAGCAGAGUCGUTT against Trmu, inactive: -1.29.
The same measure for CCUACAGGGAAUACGUGUATT against Ttc17: inactive: -0.0575; for GGUUGGUAGACUGUGCUUGTT against Hgsnat: active: -2.56; for GCUGUAUUAUGUAGCUUCUTT against Ddx27: inactive: 0.325.
The same measure for GGGCCUUCACAAUGUCCUUTT against Brca1: active: 2.68; for CGUGAUGAAUGAGAAUAACTT against Maea: inactive: 0.584; for GCGAGUUCGAUUGCUUCUCTT against Cited4: inactive: 0.802.
As for GGAAGGAACUCAAGAAGACTT against Ifrd1, the z-score was active: 2.13.
The result for GGACUUAGUGUGGAAAAGATT against Ddah2 reads inactive: -1.69; that for GGAGAUAGCAAACCUUAAGTT against Ccdc60, inactive: 0.405.
On to GGUGACUCCAAGAAUGUGGTT against Wfdc1, for which the z-score was inactive: -0.703.
As to GGUUACCUAGAAGUGGACUTT against Igsf6, the z-score is inactive: 0.201.
For the sequence GGUCUCUUUUUGUUUCCUUTT against Ctf1, the z-score is inactive: 0.913.
Consider GCUGCCAACGAAGAUGAGCTT against Casc1, for which the z-score is inactive: 0.306.
With GGUGAAUCAGCGUAAUGUATT against Nrbp1, the z-score was inactive: -1.37.
The result for GGCAGUCCUUCCUCCAAAGTT against Tmem69 reads inactive: -0.821; that for GCACUAAAUCCUUUGAUAUTT against Olfr307, inactive: 1.08; that for CCUGGCAGUAAAAGAUUGCTT against Ndst3, inactive: 0.836.
In the case of GGCUGUAGAAGGCUUAUUATT against Cnot1, the z-score is inactive: -0.786.
The result for CCGAGUUUGGGAAUAACUUTT against Cacna1a reads inactive: 1.45.
The result for GGAGAGCUCUUUACCUAAUTT against Gykl1 reads inactive: 0.206; that for CCAUCUUGACACCCAAACUTT against Olfr170, active: -3.09; that for CCUACAUCACACCUUGAUATT against Olfr1309, inactive: -0.587.
For the sequence CCCUAACUGAGGAAGGAGGTT against Zfp384, the z-score is inactive: 0.455.
For GGCCAGGAUUAUAAGUUUUTT against AI504432, the z-score is inactive: 1.61.
Turning to CGGAAUCAAACUUUUCGGGTT against Rbm7, the z-score was inactive: -0.487.
The same measure for CCCACCGAGACACCAUCUUTT against Syne4: inactive: -1.78; for GGAUGCCUUUGAUGAUGUGTT against Fmnl2: inactive: -0.332; for GGAGAAAUAUGAUGUUCUUTT against Mppe1: inactive: 0.819.
The same measure for GGUAUUCAAUAUGGUGAAGTT against Zfp932: inactive: -1.02; for GGGCUGCAUUAUUUGAAUUTT against Tmcc2: inactive: 1.38; for GCUCAGUGAUAAUUAAACGTT against Nudt10: inactive: -0.596.
With CCCACUAAGGAACAAAUUGTT against Tex24, the z-score was inactive: 0.297.
The result for GCCCUGAUGCAAGCUUGUGTT against Gprin3 reads inactive: 0.193.
Turning to CCUUAGGGAGAUAAGCUUUTT against Olfr603, the z-score was inactive: 0.095.
For GGCCCUAAAUUAUACCAGCTT against Bhlha15, the z-score is inactive: 0.653.
For the sequence GCUAACCAAGCUUGUGACATT against Adat1, the z-score is inactive: -1.11.
The same measure for CCUCAUUCAGAGUAUAUAGTT against Vwa3a: inactive: -0.469; for GGAUUUGCUUCAACAUAGGTT against Ncf2: inactive: 0.0888.
The same measure for CCUUGUAGGAAAAAAGUCCTT against Zfp109: inactive: 1.62.
The same measure for GGAGGUAGAAAUAAAUACUTT against Sva: active: 2.01.

For the origin of these results see PubChem BioAssay AID1508600 (Functional Genomics Laboratory (NCATS/FGL), 2020).
